Results taken from publication PMC5476664.
These are yes or no findings as the source states them, for the method shown. In cells and extracts the contact can be indirect. Some entries that bind do so weakly or less than the wild type.

Protein sequences, listed by entry. Tags and fused reporters are not part of them. Residues count along the entry.
UniProt P0DMV8: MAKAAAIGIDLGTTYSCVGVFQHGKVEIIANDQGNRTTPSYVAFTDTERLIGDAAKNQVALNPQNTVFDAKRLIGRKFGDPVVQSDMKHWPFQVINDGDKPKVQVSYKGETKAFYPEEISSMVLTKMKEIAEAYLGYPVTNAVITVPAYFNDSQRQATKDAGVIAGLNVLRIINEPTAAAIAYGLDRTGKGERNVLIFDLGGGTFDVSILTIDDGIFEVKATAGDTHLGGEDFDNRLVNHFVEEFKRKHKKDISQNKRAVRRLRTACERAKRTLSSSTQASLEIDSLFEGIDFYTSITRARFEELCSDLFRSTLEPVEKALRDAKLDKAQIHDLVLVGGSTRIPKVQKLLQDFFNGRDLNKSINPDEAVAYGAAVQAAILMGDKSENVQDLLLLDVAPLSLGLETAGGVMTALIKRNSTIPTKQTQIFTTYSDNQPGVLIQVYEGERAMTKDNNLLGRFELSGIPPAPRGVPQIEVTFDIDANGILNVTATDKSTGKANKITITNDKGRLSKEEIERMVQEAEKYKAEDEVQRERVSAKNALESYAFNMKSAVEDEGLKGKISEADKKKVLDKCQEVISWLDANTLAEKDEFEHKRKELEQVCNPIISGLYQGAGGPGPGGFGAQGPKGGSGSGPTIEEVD
UniProt P06733: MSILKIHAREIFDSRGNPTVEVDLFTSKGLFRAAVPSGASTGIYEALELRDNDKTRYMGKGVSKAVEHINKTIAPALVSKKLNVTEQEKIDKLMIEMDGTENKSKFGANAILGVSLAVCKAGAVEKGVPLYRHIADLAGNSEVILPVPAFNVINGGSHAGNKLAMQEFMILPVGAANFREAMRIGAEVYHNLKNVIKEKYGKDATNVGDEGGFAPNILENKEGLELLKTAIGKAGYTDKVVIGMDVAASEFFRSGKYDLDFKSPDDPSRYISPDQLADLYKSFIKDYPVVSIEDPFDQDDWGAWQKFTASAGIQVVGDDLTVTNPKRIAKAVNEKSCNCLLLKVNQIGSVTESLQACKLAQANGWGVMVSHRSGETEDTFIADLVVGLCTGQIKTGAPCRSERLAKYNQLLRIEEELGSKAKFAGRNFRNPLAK
UniProt P07355: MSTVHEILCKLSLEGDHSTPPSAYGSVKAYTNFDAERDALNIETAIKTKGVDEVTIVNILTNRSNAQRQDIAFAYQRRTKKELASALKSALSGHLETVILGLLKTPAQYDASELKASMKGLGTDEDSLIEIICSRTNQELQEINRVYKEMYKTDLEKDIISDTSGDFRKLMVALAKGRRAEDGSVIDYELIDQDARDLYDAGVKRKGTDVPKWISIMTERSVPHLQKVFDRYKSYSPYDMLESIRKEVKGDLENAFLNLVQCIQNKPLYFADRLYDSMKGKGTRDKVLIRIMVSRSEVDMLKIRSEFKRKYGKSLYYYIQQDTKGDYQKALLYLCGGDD
UniProt P04406: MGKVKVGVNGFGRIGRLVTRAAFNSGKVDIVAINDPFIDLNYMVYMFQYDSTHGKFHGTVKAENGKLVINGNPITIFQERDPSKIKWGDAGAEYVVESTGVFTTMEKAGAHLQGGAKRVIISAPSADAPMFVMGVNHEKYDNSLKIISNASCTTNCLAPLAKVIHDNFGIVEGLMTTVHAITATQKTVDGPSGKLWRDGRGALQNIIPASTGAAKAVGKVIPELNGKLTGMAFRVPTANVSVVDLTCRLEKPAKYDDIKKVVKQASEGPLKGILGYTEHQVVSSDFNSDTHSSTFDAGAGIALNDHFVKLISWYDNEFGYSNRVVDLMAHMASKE
UniProt Q03135: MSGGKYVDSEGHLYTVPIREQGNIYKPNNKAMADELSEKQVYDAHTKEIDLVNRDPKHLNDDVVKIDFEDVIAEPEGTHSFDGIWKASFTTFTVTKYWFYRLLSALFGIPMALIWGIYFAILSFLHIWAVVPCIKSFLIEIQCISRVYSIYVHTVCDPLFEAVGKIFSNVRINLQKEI
UniProt Q03405, residues 23-305: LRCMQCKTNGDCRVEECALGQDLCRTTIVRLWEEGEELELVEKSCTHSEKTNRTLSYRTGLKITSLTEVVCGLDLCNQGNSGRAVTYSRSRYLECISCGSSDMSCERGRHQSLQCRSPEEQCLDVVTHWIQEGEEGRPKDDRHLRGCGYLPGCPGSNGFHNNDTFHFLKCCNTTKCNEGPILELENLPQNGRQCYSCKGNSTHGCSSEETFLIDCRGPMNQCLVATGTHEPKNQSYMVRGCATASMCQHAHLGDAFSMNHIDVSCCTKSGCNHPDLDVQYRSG

Tests used:
[1] = target: Heat shock protein 70 (human (endogenous in HB2, MCF-7 and MCF-7R)) (UniProt P0DMV8); test: co-IP; native plasma membrane fractions (180 μg) of HB2, MCF-7 and MCF-7R cells in PBS with 1% Triton X-100, 60 mM n-Octyl-D-glucoside, 2 mM EDTA; incubated overnight with anti-alpha-enolase (Eno 276/3) or anti-Hsp70 (cmHsp70.1) monoclonal cross-linked to agarose beads; immunoblotting
[2] = target: alpha-enolase (human (endogenous in HB2, MCF-7 and MCF-7R)) (UniProt P06733); test: as above
[3] = target: alpha-enolase (human (endogenous in HB2, MCF-7 and MCF-7R)) (UniProt P06733); test: proximity ligation; Duolink in situ PLA on live-stained HB2 cells in DMEM/5 mM NaN3; goat anti-alpha-enolase plus mouse anti-surface Hsp70, rabbit anti-uPAR or mouse anti-EGFR, all at 15 μg/ml; signal means within 40 nm
[4] = target: alpha-enolase (human (endogenous in HB2, MCF-7 and MCF-7R)) (UniProt P06733); test: co-IP; cytoplasmic extracts (500 μg) of HB2, MCF-7 and MCF-7R cells incubated overnight with anti-alpha-enolase monoclonal Eno 276/3 cross-linked to agarose beads; isotype IgG control; immunoblotting

Substance | binding [1] | binding [2] | binding [3] | binding [4]
Annexin 2 (from UniProt P07355 1-339) | binds | binds | – | –
GAPDH (from UniProt P04406 1-335) (enzyme) | no binding | no binding | – | –
Heat shock protein 70 (from UniProt P0DMV8 1-641) | – | binds | binds | binds
alpha-enolase (from UniProt P06733 1-434) (enzyme) | binds | – | – | –
caveolin 1 (from UniProt Q03135 1-178) | binds | binds | – | –
urokinase plasminogen activator receptor (from UniProt Q03405 23-305) | – | binds | binds | –
